Results deposited as PubChem BioAssay AID1259308 (NCATS, 2017).
Shown is a random part of about 59,000 reagents. Over the whole deposit, about 1,510 (2.6%) are marked active. 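Calls use total luciferase alone and ignore viability, so some active siRNAs may act by altering cell number.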 Entries without a mark were called inactive. The numbers tell different reagents against one gene apart.

Aim: 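Candidate targets for better recombinant protein yield in mammalian cells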 (primary screen)
Cells: human HEK293 embryonic kidney cells stably expressing firefly luciferase (HEK-CMV-Luc2-Hygro)
Reagents: single siRNA against human genes, 0.8 pmol siRNA per well
Timing: 72 h
Measurement: 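Reporter luminescence and viable-cell signal on separate replicate plates, given as percent of non-targeting control and median/MAD z-scores, plus per-cell luciferase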
Scale: total luciferase, z-score and total luciferase, % of control: higher = more reporter protein produced; luciferase per cell, z-score: higher = more reporter output per viable cell; viable cells, % of control: higher = more viable cells
Rule for the call: 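Active when the median/MAD z-score for overall luciferase is greater than 3; a gene was taken forward for validation with new siRNAs if at least two of its three siRNAs passed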
Calls: active = raised luciferase; inactive = no rise

"total luciferase, z-score","total luciferase, % of control","luciferase per cell, z-score","viable cells, % of control",Gene,reagent no.
-1.47,52.7,-1.33,83.7,CFAP263 (cilia and flagella associated protein 263),1
0.799,97.8,0.436,97.4,CFAP263 (cilia and flagella associated protein 263),2
-0.444,73,-1.18,111,CFAP263 (cilia and flagella associated protein 263),3
-0.15,78.9,0.0515,87,MTMR11 (myotubularin related protein 11),1
-0.184,78.2,-1.01,114,MTMR11 (myotubularin related protein 11),2
1.84,119,1.18,97.1,MTMR11 (myotubularin related protein 11),3
-2.33,35.5,-2.31,73,GJD4 (gap junction protein delta 4),1
0.55,92.8,0.777,84.5,GJD4 (gap junction protein delta 4),2
-0.689,68.2,-0.62,89.7,GJD4 (gap junction protein delta 4),3
0.752,96.9,1.26,77.7,TBPL2 (TATA-box binding protein like 2),1
0.162,85.1,0.306,87.8,TBPL2 (TATA-box binding protein like 2),2
0.304,87.9,0.238,92.3,TBPL2 (TATA-box binding protein like 2),3
0.956,101,0.71,93.5,SLC24A4,1
0.466,91.2,0.951,79.3,SLC24A4,2
-0.772,66.5,-1.09,99.1,SLC24A4,3
1.05,103,0.454,102,PEX26 (peroxisomal biogenesis factor 26),1
1.82,118,0.923,104,PEX26 (peroxisomal biogenesis factor 26),2
0.238,86.6,0.162,92.8,PEX26 (peroxisomal biogenesis factor 26),3
-0.493,72.1,-1.03,106,TGM6 (transglutaminase 6),1
0.193,85.7,-0.406,107,TGM6 (transglutaminase 6),2
-1.47,52.6,-1.53,88,TGM6 (transglutaminase 6),3
-0.45,72.9,0.112,79.1,CCDC60 (coiled-coil domain containing 60),1
-0.475,72.4,-0.483,91.9,CCDC60 (coiled-coil domain containing 60),2
0.062,83.1,0.664,78,CCDC60 (coiled-coil domain containing 60),3
-1.15,59.1,-0.696,79.3,YWHAZ,1
-0.713,67.7,-0.248,80.8,YWHAZ,2
0.946,101,0.802,91.1,YWHAZ,3
-0.138,79.1,-0.373,97.6,BLTP2 (bridge-like lipid transfer protein family member 2),1
0.497,91.8,0.199,97.3,BLTP2 (bridge-like lipid transfer protein family member 2),2
0.298,87.8,-0.248,105,BLTP2 (bridge-like lipid transfer protein family member 2),3
-0.0139,81.6,0.299,84.3,IGFL2 (IGF like family member 2),1
-0.584,70.3,-0.494,89.4,IGFL2 (IGF like family member 2),2
-0.223,77.5,-0.363,95.2,IGFL2 (IGF like family member 2),3
-2.71,28,-1.25,43.5,"LNPK (lunapark, ER junction formation factor)",1
0.783,97.5,0.244,102,"LNPK (lunapark, ER junction formation factor)",2
-0.548,71,-1.11,106,"LNPK (lunapark, ER junction formation factor)",3
2.24,126,1.07,107,ZBTB14 (zinc finger and BTB domain containing 14),1
-0.0621,80.7,0.296,83.4,ZBTB14 (zinc finger and BTB domain containing 14),2
0.158,85,0.269,88.5,ZBTB14 (zinc finger and BTB domain containing 14),3

Reformatted: entries from further up
MTMR11 (myotubularin related protein 11) #3: total luciferase, z-score = 1.84; total luciferase, % of control = 119; luciferase per cell, z-score = 1.18; viable cells, % of control = 97.1
GJD4 (gap junction protein delta 4) #1: total luciferase, z-score = -2.33; total luciferase, % of control = 35.5; luciferase per cell, z-score = -2.31; viable cells, % of control = 73
GJD4 (gap junction protein delta 4) #2: total luciferase, z-score = 0.55; total luciferase, % of control = 92.8; luciferase per cell, z-score = 0.777; viable cells, % of control = 84.5
GJD4 (gap junction protein delta 4) #3: total luciferase, z-score = -0.689; total luciferase, % of control = 68.2; luciferase per cell, z-score = -0.62; viable cells, % of control = 89.7
TBPL2 (TATA-box binding protein like 2) #1: total luciferase, z-score = 0.752; total luciferase, % of control = 96.9; luciferase per cell, z-score = 1.26; viable cells, % of control = 77.7
